Measured values published in PubChem BioAssay AID246 (DTP/NCI, 2004).
The list is a part of this screen's results and no random one: it gathers tests that were run many times, whatever their T/C, doses with no T/C, and many T/C values between a quarter and a half above the control. Further doses and runs are listed elsewhere. T/C: endpoint of the treated group in % of that of the vehicle group. Some entries give survivors of the animals treated and no T/C: the source holds a T/C of zero for them, seemingly a mark for toxic or unscored doses. Some doses without a T/C left all or most animals alive at the check, yet need not have been tolerated: survival well below the control is almost never listed, so the zero probably covers shortened survival too. Survivors were counted at the toxicity check, usually on the fifth day, unless a day is given; later deaths do not show. Schedules are NCI's codes, taken here to give the interval after Q, in days (D) or hours (H), and the number of doses after X. Some schedule codes hold Z or #, which are not explained here. Some doses were run more than once; the results are listed from low to high. For survival time, this PubChem deposit counts one and a half times the control or more as active, and values a quarter to a half above the control carry no call in these data; other NCI protocols may use other cut-offs. Marks such as (2×) say how often a value occurs here. Some T/C values are followed by the survivors on the day toxicity was checked, most often the fifth; without a count, all were alive then.

Tested on: BDF1 mice, P1081 chloroleukemia ip, survival T/C
Assay: NCI In Vivo Anticancer Drug Screen. Data for tumor model P1081 Chloroleukemia (intraperitoneal) in B6D2F1 (BDF1) mice
Settings: T/C endpoint: mean survival time, higher T/C = longer survival
Experimental: The antitumor activity of compounds was measured in mice bearing transplantable tumors. Survival or tumor size were measured and the results are expressed as the measurement made in the treated group (T) divided by the measurement made in the vehicle treated control group (C). The tumor model used in this assay is P1081 Chloroleukemia (intraperitoneal) in B6D2F1 (BDF1) mice

[1] = dose: 6.25 mg/kg/injection, schedule: Q01DX010 (ip), vehicle: saline
[2] = dose: 10.0 mg/kg/injection, schedule: Q01DX Z (ip), vehicle: carboxymethylcellulose (CMC)
[3] = dose: 20.0 mg/kg/injection, schedule: Q01DX Z (ip), vehicle: carboxymethylcellulose (CMC)
[4] = dose: 80.0 mg/kg/injection, schedule: Q01DX010 (ip), vehicle: saline
[5] = dose: 62.5 mg/kg/injection, schedule: Q01DX Z (ip), vehicle: carboxymethylcellulose (CMC)
[6] = dose: 125.0 mg/kg/injection, schedule: Q01DX Z (ip), vehicle: carboxymethylcellulose (CMC)
[7] = dose: 250.0 mg/kg/injection, schedule: Q01DX Z (ip), vehicle: carboxymethylcellulose (CMC)
[8] = dose: 500.0 mg/kg/injection, schedule: Q01DX Z (ip), vehicle: carboxymethylcellulose (CMC)
[9] = dose: 12.5 mg/kg/injection, schedule: Q01DX Z (ip), vehicle: carboxymethylcellulose (CMC)
[10] = dose: 25.0 mg/kg/injection, schedule: Q01DX Z (ip), vehicle: carboxymethylcellulose (CMC)
[11] = dose: 50.0 mg/kg/injection, schedule: Q01DX Z (ip), vehicle: carboxymethylcellulose (CMC)
[12] = dose: 100.0 mg/kg/injection, schedule: Q01DX Z (ip), vehicle: carboxymethylcellulose (CMC)
[13] = dose: 200.0 mg/kg/injection, schedule: Q01DX Z (ip), vehicle: carboxymethylcellulose (CMC)
[14] = dose: 54.0 mg/kg/injection, schedule: Q01DX010 (ip), vehicle: saline

In the case of `CC(=O)NC1=C(N2CC2)C(=O)C(NC(C)=O)=C(N2CC2)C1=O`, the T/C (dose: 125.0 micrograms/kg/injection, schedule: Q01DX010 (ip), vehicle: saline) is reported as 127 and 135 % of control and the T/C (dose: 1000.0 micrograms/kg/injection, schedule: Q01DX010 (ip), vehicle: saline) is reported as 138 % of control.
`CN(C)CC(=O)c1ccc(O)c(O)c1` was tested, and the survivor count (dose: 1000.0 mg/kg/injection, schedule: Q01DX Z (ip), vehicle: saline) was 0 of 6.
With `N=[N+]=CC(=O)OCC(N)C(=O)O` (stereo unspecified) the T/C (dose: 1.88 mg/kg/injection, schedule: Q01DX Z (ip), vehicle: saline) was 139 % of control, the T/C (dose: 2.5 mg/kg/injection, schedule: Q01DX Z (ip), vehicle: saline) was 147 % of control and the T/C (dose: 3.13 mg/kg/injection, schedule: Q01DX010 (ip), vehicle: saline) was 125 and 135 % of control. For the same compound, the T/C (dose: 5.0 mg/kg/injection, schedule: Q01DX Z (ip), vehicle: saline) was 90, 107, 125, 164 % of control, the T/C [1] was 135 and 140 % of control and the T/C (dose: 7.5 mg/kg/injection, schedule: Q01DX Z (ip), vehicle: saline) was 148 % of control. For the same compound, the T/C (dose: 10.0 mg/kg/injection, schedule: Q01DX Z (ip), vehicle: saline) was 92, 119 (2×), 170 % of control, the T/C (dose: 12.5 mg/kg/injection, schedule: Q01DX010 (ip), vehicle: saline) was 140 % of control and the survivor count (dose: 20.0 mg/kg/injection, schedule: Q01DX Z (ip), vehicle: saline) was 6 of 6. The survivor count (dose: 40.0 mg/kg/injection, schedule: Q01DX Z (ip), vehicle: saline) was 6 of 6.
In the case of `CS(=O)(=O)OCC(O)C(O)COS(C)(=O)=O` (stereo unspecified), the T/C (dose: 750.0 mg/kg/injection, schedule: Q01DX Z (ip), vehicle: saline) is reported as 140 % of control and the T/C (dose: 1500.0 mg/kg/injection, schedule: Q01DX Z (ip), vehicle: saline) is reported as 127 % of control.
In the case of `CN(C)c1ccc(/C=C\c2ccnc3ccccc23)cc1`, the survivor count (dose: 50.0 mg/kg/injection, schedule: Q01DX Z (ip), vehicle: water) is reported as 6 of 6.
`C[C@]12C=CC(=O)C=C1CC[C@@H]1[C@@H]2C(=O)C[C@@]2(C)[C@H]1CC[C@]2(O)C(=O)CO` was tested, and the T/C (dose: 25.0 mg/kg/injection, schedule: Q01DX Z (sc), vehicle: steroid suspending solution) was 127 % of control, the T/C (dose: 50.0 mg/kg/injection, schedule: Q01DX Z (sc), vehicle: steroid suspending solution) was 131 % of control and the survivor count (dose: 100.0 mg/kg/injection, schedule: Q01DX Z (sc), vehicle: steroid suspending solution) was 6 of 6. For the same compound, the survivor count (dose: 200.0 mg/kg/injection, schedule: Q01DX010 (sc), vehicle: steroid suspending solution) was 6 of 6, the survivor count (dose: 200.0 mg/kg/injection, schedule: Q01DX Z (sc), vehicle: steroid suspending solution) was 4 of 6 and the survivor count (dose: 400.0 mg/kg/injection, schedule: Q01DX Z (sc), vehicle: steroid suspending solution) was 6 of 6.
In the case of `N#[N+]c1cnc([O-])[nH]c1=O`, the T/C (dose: 5.0 mg/kg/injection, schedule: Q01DX010 (ip), vehicle: saline) is reported as 138 % of control and the survivor count (dose: 20.0 mg/kg/injection, schedule: Q01DX010 (ip), vehicle: saline) is reported as 1 of 6.
For `CN(C)/N=N/c1nc[nH]c1C(N)=O`, the T/C (dose: 50.0 mg/kg/injection, schedule: Q01DX010 (ip), vehicle: saline) was 144 % of control, the T/C (dose: 200.0 mg/kg/injection, schedule: Q01DX010 (ip), vehicle: saline) was 135 % of control and the survivor count (dose: 400.0 mg/kg/injection, schedule: Q01DX010 (ip), vehicle: saline) was 4 of 6.
In the case of `CC1CCOS(=O)O1` (stereo unspecified), the survivor count (dose: 1.25 mg/kg/injection, schedule: Q01DX Z (ip), vehicle: carboxymethylcellulose (CMC)) is reported as 6 of 6, the survivor count [2] is reported as 6 of 6 and the survivor count [3] is reported as 6 of 6. For the same compound, the survivor count (dose: 40.0 mg/kg/injection, schedule: Q01DX Z (ip), vehicle: carboxymethylcellulose (CMC)) was 6 of 6, the survivor count [4] was 6 of 6 and the survivor count (dose: 80.0 mg/kg/injection, schedule: Q01DX Z (ip), vehicle: carboxymethylcellulose (CMC)) was 6 of 6.
With `C[C@]12CC[C@H](OC3OC(CO)C(O)C(O)C3O)C[C@H]1CC[C@@H]1[C@@H]2CC[C@]2(C)[C@@H](C3=CCOC3=O)CC[C@]12O` (stereo partly specified) the survivor count (dose: 2.0 mg/kg/injection, schedule: Q01DX Z (ip), vehicle: saline) was 6 of 6 and the survivor count (dose: 4.0 mg/kg/injection, schedule: Q01DX Z (ip), vehicle: saline) was 6 of 6.
With `CCN(CC)c1ccc2cc3ccc(=[N+](CC)CC)cc-3oc2c1` the survivor count [2] was 6 of 6 and the survivor count [3] was 0 of 6.
In the case of `CS(=O)(=O)OCCCCOS(C)(=O)=O`, the survivor count (dose: 0.19 mg/kg/injection, schedule: Q01DX Z (ip), vehicle: methylcellulose (MC)) is reported as 6 of 6, the survivor count (dose: 3.12 mg/kg/injection, schedule: Q01DX Z (ip), vehicle: methylcellulose (MC)) is reported as 6 of 6 and the survivor count [1] is reported as 6 of 6. The survivor count (dose: 12.5 mg/kg/injection, schedule: Q01DX Z (ip), vehicle: methylcellulose (MC)) was 6 of 6 and the survivor count (dose: 100.0 mg/kg/injection, schedule: Q01DX Z (ip), vehicle: methylcellulose (MC)) was 5 of 6.
For `OCC1OC(n2cnc3c(=S)nc[nH]c32)C(O)C1O` (stereo unspecified), the T/C [5] was 133 % of control, the T/C [6] was 133 % of control and the T/C (dose: 160.0 mg/kg/injection, schedule: Q01DX010 (ip), vehicle: saline) was 125 % of control [5 of 6 alive]. The T/C [7] was 133 % of control [5 of 6 alive] and the survivor count [8] was 6 of 6.
`S=P(N1CC1)(N1CC1)N1CC1` was tested, and the T/C (dose: 3.0 mg/kg/injection, schedule: Q01DX Z (ip), vehicle: saline) was 128 % of control.
For `CN1CC[C@]23c4c5ccc(O)c4O[C@H]2C(=O)CC[C@H]3[C@H]1C5`, the survivor count (dose: 32.0 mg/kg/injection, schedule: Q01DX010 (ip), vehicle: saline) was 6 of 6.
In the case of `C[N+](C)(C)c1ncnc2nc[nH]c12`, the T/C [9] is reported as 139 % of control, the survivor count [9] is reported as 6 of 6 and the T/C [10] is reported as 92, 106, 147 % of control. The survivor count [10] was 5 of 6, the survivor count [11] was 6 of 6 and the T/C [12] was 130 % of control. For the same compound, the survivor count [12] was 6 of 6, the survivor count [13] was 0 of 6 and 5 of 6 and the survivor count (dose: 400.0 mg/kg/injection, schedule: Q01DX Z (ip), vehicle: carboxymethylcellulose (CMC)) was 1 of 6. For the same compound, the survivor count (dose: 800.0 mg/kg/injection, schedule: Q01DX Z (ip), vehicle: carboxymethylcellulose (CMC)) was 0 of 6.
With `S=P(N1CCOCC1)(N1CC1)N1CC1` the survivor count [9] was 3 of 6, the survivor count [10] was 5 of 6 and the survivor count [11] was 0 of 6.
For `CN(C)c1ccc(Nc2c3ccccc3nc3ccccc23)cc1`, the T/C (dose: 16.0 mg/kg/injection, schedule: Q01DX010 (ip), vehicle: saline) was 125 % of control, the T/C (dose: 24.0 mg/kg/injection, schedule: Q01DX010 (ip), vehicle: saline) was 130 % of control and the T/C (dose: 36.0 mg/kg/injection, schedule: Q01DX010 (ip), vehicle: saline) was 130 % of control. For the same compound, the T/C [14] was 135 % of control, the survivor count [14] was 6 of 6 and the survivor count [4] was 6 of 6. For the same compound, the survivor count (dose: 120.0 mg/kg/injection, schedule: Q01DX010 (ip), vehicle: saline) was 5 of 6 and the survivor count [13] was 6 of 6.
`CN(C)c1nc(N(C)C)nc(N(C)C)n1` was tested, and the survivor count (dose: 8.0 mg/kg/injection, schedule: Q01DX Z (ip), vehicle: carboxymethylcellulose (CMC)) was 5 of 6, the survivor count [6] was 6 of 6 and the survivor count [7] was 6 of 6. The survivor count [8] was 3 of 6.
`O=c1[nH]c(=O)n(C2CC(O)C(CO)O2)cc1I` (stereo unspecified) was tested, and the survivor count [5] was 6 of 6 and the T/C [6] was 126 % of control.
